Data from patent US10064926B2, “Peptides and combination of peptides for use in immunotherapy against hepatocellular carcinoma (HCC) and other cancers” (Immatics biotechnologies GmbH, priority 2014, dated 2018).

Experiments:
[1] = test system: primary HCC tissue samples; assay: Identification and label-free LC-MS relative quantitation of HLA-presented peptides (presentation profiles/scores), HCC versus normal tissues; parameters: species or system human; key to PeptidePresentation (presentation score): very highly over-presented on tumors compared to a panel of normal tissues (+++); highly over-presented on tumors compared to a panel of normal tissues (++); over-presented on tumors compared to a panel of normal tissues (+); conditions: for over-presentation in HCC compared with normal tissues: FIG. 1 presentation profiles; for PeptidePresentation (presentation score): HCC tumors compared to a panel of normal tissues
[2] = test system: tumor samples of other tumor types; assay: Over-presentation of peptides on additional tumor types versus normal tissues (LC-MS); parameters: species or system human; conditions: for number of cancer tissues on which the peptide was presented / number of cell-lines on which the peptide was presented / number of normal tissues on which the peptide was presented: FIG. 1, only samples on which the peptide was presented; for Additional Entities (additional tumor types on which the peptide was found over-presented) / Other relevant organs/diseases (additional tumor types on which the peptide was found over-presented): over-presentation on more than 5% of the measured tumor samples, or presentation on more than 5% with ratio of geometric means tumor vs normal tissues larger than 3

Substance	over-presentation in HCC compared with normal tissues [1]	number of cancer tissues on which the peptide was presented [2]	number of cell-lines on which the peptide was presented [2]	number of normal tissues on which the peptide was presented [2]	Additional Entities (additional tumor types on which the peptide was found over-presented) [2]	PeptidePresentation (presentation score) [1]	Other relevant organs/diseases (additional tumor types on which the peptide was found over-presented) [2]
63 (KIDEKNFVV; listed as Homo sapiens) [compound 63]	over-presentation	16	5	1	SCLC, Brain Cancer, Urinary bladder cancer, Uterine Cancer		
206 (KWPETPLLL; listed as Homo sapiens) [compound 206]						+++	Kidney, Brain
151 (HLAKVTAEV; listed as Homo sapiens) [compound 151]					SCLC, OC, Urinary bladder cancer	+	
311 (FLIPIYHQV; listed as Homo sapiens) [compound 311]						+	Kidney, Brain
290 (NLIDLDDLYV; listed as Homo sapiens) [compound 290]					SCLC, PrC, MCC, OC, Urinary bladder cancer, Uterine Cancer	++	Brain, Colon, Rectum, Pancreas
335 (SLLPVDIRQYL; listed as Homo sapiens) [compound 335]						++	Kidney, CLL
284 (KLDAFVEGV; listed as Homo sapiens) [compound 284]					BRCA, OC	+	
189 (AFSPDSHYLLF; listed as Homo sapiens) [compound 189]					NSCLC, PrC	+++	Kidney, Brain
52 (GLFNAELLEA; listed as Homo sapiens) [compound 52]					SCLC	+	
276 (ALLEADVNIKL; listed as Homo sapiens) [compound 276]					Gallbladder Cancer, Bile Duct Cancer, OC	+	Pancreas
271 (LLLDKLILL; listed as Homo sapiens) [compound 271]					CLL, Melanoma, OC, Urinary bladder cancer, Uterine Cancer	+	Brain, Colon, Rectum
252 (RTIEYLEEV; listed as Homo sapiens) [compound 252]					Melanoma	+	
86 (RLAAFYSQV; listed as Homo sapiens) [compound 86]					AML	+++	
22 (RIAGIRGIQGV; listed as Homo sapiens) [compound 22]					NSCLC, PrC, BRCA, OC, NHL	+++	Kidney, Colon, Rectum
164 (RMLIKLLEV; listed as Homo sapiens) [compound 164]					SCLC, CRC	+	
244 (KIAELLENV; listed as Homo sapiens) [compound 244]					NSCLC, SCLC, PrC, CLL, BRCA, Melanoma, OC, Uterine Cancer, AML, NHL	+	Brain, Colon, Rectum
92 (RLPPDTLLQQV; listed as Homo sapiens) [compound 92]	over-presentation	17	2	2	Urinary bladder cancer		

Substance	over-presentation in HCC compared with normal tissues [1]	number of cancer tissues on which the peptide was presented [2]	number of cell-lines on which the peptide was presented [2]	number of normal tissues on which the peptide was presented [2]	Additional Entities (additional tumor types on which the peptide was found over-presented) [2]	PeptidePresentation (presentation score) [1]	Other relevant organs/diseases (additional tumor types on which the peptide was found over-presented) [2]
268 (KLYQEVEIASV; listed as Homo sapiens) [compound 268]					CRC, MCC, Melanoma, Urinary bladder cancer	+	Brain
193 (IYPGAFVDL; listed as Homo sapiens) [compound 193]					NSCLC	+++	Brain
55 (GLYGRTIEL; listed as Homo sapiens) [compound 55]					SCLC	+	Kidney
123 (YLWDLDHGFAGV; listed as Homo sapiens) [compound 123]					NSCLC, SCLC, PrC, BRCA, Melanoma, OC; Esophageal Cancer, AML, NHL	++	Brain, Colon, Rectum
172 (SLLNFLQHL; listed as Homo sapiens) [compound 172]					AML	+	Kidney, Colon, Rectum, CLL
191 (KYPDIISRI; listed as Homo sapiens) [compound 191]					NSCLC, GC	++	Brain
131 (ALDSGAFQSV; listed as Homo sapiens) [compound 131]					CRC, Melanoma, Gallbladder Cancer, Bile Duct Cancer	++	
340 (KVFDEVIEV; listed as Homo sapiens) [compound 340]						+	Brain
316 (LLREKVEFL; listed as Homo sapiens) [compound 316]						+	Kidney, Brain, Colon, Rectum, Pancreas
301 (VLADFGARV; listed as Homo sapiens) [compound 301]						+++	Kidney, Colon, Rectum
250 (NLAEVVERV; listed as Homo sapiens) [compound 250]					NSCLC, SCLC, PrC, BRCA, MCC, OC, Gallbladder Cancer, Bile Duct Cancer	++	Brain, Colon, Rectum, CLL
346: peptide found in CDK1 (gene looked up) (LYQILQGIVF; listed as Homo sapiens) [compound 346]					NSCLC, Brain Cancer, GC	+++	Kidney
54 (GLLDPNVKSIFV; listed as Homo sapiens) [compound 54]					SCLC, SCLC, OC, Urinary bladder cancer	+++	Kidney, Brain
23 (RLYDPASGTISL; listed as Homo sapiens) [compound 23]					CLL, Melanoma, NHL	+	
135 (ALLGKIEKV; listed as Homo sapiens) [compound 135]					NSCLC, SCLC, BRCA, OC, Gallbladder Cancer, Bile Duct Cancer	+	Brain, Pancreas
129 (SQADVIPAV; listed as Homo sapiens) [compound 129]					Urinary bladder cancer	+	
265 (WLIEDGKVVTV; listed as Homo sapiens) [compound 265]					Melanoma	++	
